Source: PubChem BioAssay AID493014 (National Center for Advancing Translational Sciences (NCATS), 2011)
The whole screen tested about 340,000 compounds, of which about 170 (0.05%) were called active. Inconclusive means that the source gave no clear call. Such entries were picked first, then a sample of the others. Calls follow the shape of the dose curve; as a rule, active = well fitted inhibition curve with a large enough effect in the signal ratio, with a control signal flat (not every such curve was filed as active); inconclusive = small, poorly fitted or top-dose-only effect, or effect the other way, or a change in a side signal; inactive = flat fitted curve, though single readings scatter; the % refers to the signal ratio. Where the call is inconclusive, the potency comes from a doubtful curve fit.

Assay: qHTS Assay to Find Inhibitors of Chronic Active B-Cell Receptor Signaling;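 as to activity change, negative = inhibition: plate controls were basal doxycycline-induced cells for no effect and cells given 10 µM MG132 for full effect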
Settings: ABC-DLBCL IkBa-CBG/CBR reporter, luminescence ratio (green luciferase fused to IkBa over red control in TMD8 lymphoma cells), 4 h; activity change, negative = inhibition: at 46.1 µM (top of the series)
Procedure, shortened: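 Doxycycline induced both beetle luciferases in TMD8 lymphoma cells; IKK-driven degradation limits the IkappaBalpha-fused green signal, while red luminescence normalises for cell number and nonspecific effects. Compounds tested up to 46 uM, 4 hrs.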
Potency is read from the fitted curve at half-maximal effect.

Row | SMILES | Potency | activity change, negative = inhibition
1 | COc1ccc(NC(=O)CC2C(=O)N(C)C(=S)N2Cc2ccncc2)cc1 (configuration not stated) | inconclusive: 10 µM [falling, partial curve] | –
2 | c1ccc(Nc2nc(NCc3ccco3)c3ccccc3n2)cc1 | inconclusive: 12.6 µM [falling, single point] | –
3 | CC1=C(C)CC(C(=O)NNC(=O)c2csc(C)c2C)C(C(=O)O)C1 (configuration not stated) | – | inconclusive: -13.3%
4 | COc1ccccc1C(=O)NCCCNc1ccc([N+](=O)[O-])cc1 | – | inconclusive: -1.35%
5 | COc1cc(/C=C/C(=O)c2ccc(NS(=O)(=O)c3ccc(C)cc3)cc2)cc(OC)c1O | inconclusive: 23.1 µM [falling, partial curve] | –
6 | O=C(O)CCN1C(=O)C2CCCCC2C1=O (configuration not stated) | inconclusive: 0.13 µM [falling, full curve, poor fit] | –
7 | CCOc1ccc(/C=C/C(O)=C2/C(=O)NC3(C)CC2c2ccccc2O3)cc1OC (configuration not stated) | inconclusive: 3.98 µM [falling, single point] | –
8 | O=C(N/N=C/c1sc(N2CCOCC2)nc1-c1ccccc1)c1cccc(S(=O)(=O)N2CCOCC2)c1 | – | inconclusive: -0.53%
9 | COc1ccccc1N(C)S(=O)(=O)c1ccc(C(=O)OCC(=O)N(C)c2ccccc2)cc1 | – | inactive
10 | O=C(OCCOc1ccccc1)c1n[nH]c2ccccc12 | inconclusive: 22.4 µM [falling, partial curve] | –
11 | O=C(NN=C1CCCCC1)NC1CCCCC1 | inconclusive: 29.1 µM [falling, single point] | –
12 | CCOc1cc(/C=N/N2C(=O)NC3(CCCCC3)C2=O)cc(Br)c1O | – | inconclusive: 0.145%
13 | CC(c1ccco1)N(C(=O)c1ccccc1NS(=O)(=O)c1cccc([N+](=O)[O-])c1)c1ccccn1 (configuration not stated) | – | inconclusive: 3.28%
14 | Cc1cccc(N(C(=O)CCC(=O)Nc2cc(C)on2)C(C(=O)NC2CCCC2)c2ccccc2)c1 (configuration not stated) | – | inactive
15 | CCCC(=O)NC(c1ccccc1)c1ccc2cccnc2c1O (configuration not stated) | – | inconclusive: -7.18%
16 | c1ccc(Sc2ncnc3ccccc23)cc1 | inconclusive: 11.2 µM [falling, partial curve, poor fit] | –
17 | COc1ccc(Cl)cc1NC(=O)CN(C)C(=O)c1cc2ccccc2cc1O | – | inconclusive: -12.8%
18 | CN(CC(=O)Nc1ccccc1Br)c1ncnc2sccc12 | – | inconclusive: 0.515%
19 | NC(=O)COC(=O)c1ccc(Cl)c(S(=O)(=O)N(Cc2ccccc2)c2ccc(Cl)cc2)c1 | – | inconclusive: -28.7%
20 | Cc1ccc(C2CC(=O)Oc3cc(O)ccc32)cc1 (configuration not stated) | – | inconclusive: -1.28%
21 | N#CCCN(C(=O)Nc1ccccc1)c1ccccc1 | – | inconclusive: 5.39%
22 | COc1ccc(OCCOC(=O)CN2C(=O)NC3(CCCC3)C2=O)cc1 | – | inactive
23 | COc1cc2c(cc1OC)-c1cc(NC3CCCCCC3)nc(=O)n1CC2 | inconclusive: 3.55 µM [falling, partial curve, poor fit] | –
24 | Cc1ccsc1/C=N/NC(=O)c1ccc2ccccc2c1 | inconclusive: 22.4 µM [falling, single point] | –
25 | COc1ccccc1C(=O)NC1CCCCCCC1 | – | inconclusive: 20.4%
26 | CCOc1ccc(NC(=O)N(CCN2CCOCC2)Cc2ccc3c(c2)CCCN3CC)cc1 | – | inactive

Row | SMILES | Potency | activity change, negative = inhibition
27 | CC1(c2ccc3noc(-c4cccc(F)c4)c3c2)OCCO1 | – | inactive
28 | COc1ccc(S(=O)(=O)N2CCCCCC2)cc1C(=O)N(C)CC(=O)Nc1ccc(Cl)c(Cl)c1 | – | inconclusive: -4.15%
29 | CCN(c1ccc(NC(=O)CSCc2c(C)noc2C)cc1)C(C)C | – | inconclusive: -0.0045%
30 | COc1ccc(C(CNC(=O)c2ccc(S(=O)(=O)N3CC(C)CC(C)C3)cc2)N(C)C)cc1 (configuration not stated) | – | inconclusive: -24.4%
31 | CCOc1ccc(S(=O)(=O)Nc2ccccn2)c2ccccc12 | – | inactive
32 | Cc1ccc2nc(N/C(=N/S(=O)(=O)c3ccc(F)cc3)c3ccccc3)sc2c1 | – | inconclusive: -0.613%
33 | CC1CN(C(=O)c2cccc(COc3ccccc3Cl)c2)CC(C)O1 (configuration not stated) | – | inconclusive: -0.668%
34 | NC(=O)/C=C/C(=O)Nc1ccc(Cl)cc1 | – | inconclusive: 12.3%
35 | NC(N)=N/N=C/c1cccc(Cl)c1Cl | inconclusive: 12.6 µM [falling, partial curve, poor fit] | –
36 | O=C(NCc1ccc2c(c1)CCN2C(=O)c1ccc(F)cc1)c1ccc(Br)o1 | – | inconclusive: 12.1%
37 | COc1cccc(/C=N/n2c(-c3ccco3)nc3ccccc3c2=O)c1 | inconclusive: 0.58 µM [falling, full curve] | –
38 | COc1ccc2[nH]c(=O)c(COC(=O)c3ccco3)cc2c1 | – | inconclusive: 4.98%
39 | Cc1c(C(=O)/C=C/N(C)C)nnn1-c1ccc(Cl)c(Cl)c1 | – | inconclusive: 5.19%
40 | CCN1c2ccccc2-c2nc3ccccc3n2C1c1cccnc1 (configuration not stated) | – | inconclusive: -0.22%
41 | Cc1noc(NS(=O)(=O)c2ccc(NC(=O)c3oc4ccc(Cl)cc4c3C)cc2)c1C | – | inactive
42 | COCc1cc(=O)[nH]c(/N=C(\N)Nc2cccc(C)c2)n1 | inconclusive: 29.1 µM [falling, single point] | –
43 | NC(=O)c1ccc[n+](CC(=O)c2ccccc2)c1 | – | inconclusive: 1.91%
44 | CC(C)(CNCc1ccccc1)NS(=O)(=O)c1ccc(Cl)cc1 | – | inactive
45 | CCc1ccc(/C(C)=N\Nc2ccc([N+](=O)[O-])cc2)cc1 | inconclusive: 7.08 µM [rising, partial curve, poor fit] | –
46 | O=C(NCCCN1CCOCC1)C(=O)N/N=C/c1ccc(F)cc1 | – | inconclusive: -2.07%
47 | CCSc1ccccc1C(=O)NCCc1ccccc1 | – | inconclusive: 7.43%
48 | O=c1nc(Nc2ccccc2)oc2ccccc12 | inconclusive: 22.4 µM [falling, partial curve] | –
49 | Cn1c(=O)c([N+](=O)[O-])c(NCc2ccccc2Cl)c2ccccc21 | – | inactive
50 | COc1ccc(CCC(=O)NC2CCCN(Cc3ccc(Cl)cc3)C2)cc1OC (configuration not stated) | – | inactive
51 | COC(=O)CSc1nc(C)c(C(C)=O)cc1C#N | – | inconclusive: 11.3%
52 | CCOc1ccccc1NC(=O)NNS(=O)(=O)c1ccc([N+](=O)[O-])cc1 | – | inconclusive: 0.429%

Some of these compounds in order of molecular weight, rising.
Row | SMILES | Potency | activity change, negative = inhibition
48 | O=c1nc(Nc2ccccc2)oc2ccccc12 | inconclusive: 22.4 µM [falling, partial curve] | –
51 | COC(=O)CSc1nc(C)c(C(C)=O)cc1C#N | – | inconclusive: 11.3%
45 | CCc1ccc(/C(C)=N\Nc2ccc([N+](=O)[O-])cc2)cc1 | inconclusive: 7.08 µM [rising, partial curve, poor fit] | –
42 | COCc1cc(=O)[nH]c(/N=C(\N)Nc2cccc(C)c2)n1 | inconclusive: 29.1 µM [falling, single point] | –
27 | CC1(c2ccc3noc(-c4cccc(F)c4)c3c2)OCCO1 | – | inactive
39 | Cc1c(C(=O)/C=C/N(C)C)nnn1-c1ccc(Cl)c(Cl)c1 | – | inconclusive: 5.19%
40 | CCN1c2ccccc2-c2nc3ccccc3n2C1c1cccnc1 (configuration not stated) | – | inconclusive: -0.22%
31 | CCOc1ccc(S(=O)(=O)Nc2ccccn2)c2ccccc12 | – | inactive
49 | Cn1c(=O)c([N+](=O)[O-])c(NCc2ccccc2Cl)c2ccccc21 | – | inactive
37 | COc1cccc(/C=N/n2c(-c3ccco3)nc3ccccc3c2=O)c1 | inconclusive: 0.58 µM [falling, full curve] | –
32 | Cc1ccc2nc(N/C(=N/S(=O)(=O)c3ccc(F)cc3)c3ccccc3)sc2c1 | – | inconclusive: -0.613%
36 | O=C(NCc1ccc2c(c1)CCN2C(=O)c1ccc(F)cc1)c1ccc(Br)o1 | – | inconclusive: 12.1%
